Experimental data: PubChem BioAssay AID1159578 (Peter MacCallum Cancer Centre, 2015)
Here is an unselected part of about 18,000 reagents. Over the whole deposit, about 1,030 (5.7%) are marked active. 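Inactive calls also include pools with fewer than 3300 nuclei, whose migration was not assessed.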 Raw values vary from plate to plate and are shown uncorrected. Unmarked entries are inactive. Not all columns of the deposit are shown.

Screen: 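siRNA pools altering how lymphatic endothelial cells close a scratch wound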 (primary screen)
Cells: human lymphatic endothelial cells
Reagents: siRNA pool against human genes, 40 nM
Timing: 48 h after transfection
Measured: 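High-content imaging of dye-stained cells in a scratch assay measures filled wound area and nuclei per well; duplicate means given as ratio to mock and robust z-score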
Reading the numbers: migration robust z-score: higher = faster migration into the scratch; nuclei per well: higher = more cells in the well
Hit rule: 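Pools averaging fewer than 3300 nuclei are never called; remaining pools count as changed when migration robust z lies outside -2 to 2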
Calls: active = migration changed; inactive = no migration change, or too few cells

Target gene | PubChem SID | migration robust z-score | nuclei per well, duplicate mean
TRPV3 | SID255363753 | 1.48 | 4953
TSR3 | SID255362336 | -0.44 | 5796
MAP3K7CL | SID255359158 | 1.15 | 4598
MICU3 | SID255364898 | -0.66 | 5416
ZFAND5 | SID255353278 | -1.56 | 5200
CYP3A43 | SID255360016 | 0.98 | 6024
CFAP57 | SID255363416 | 0.5 | 6366
TMEM174 | SID255362967 | -0.73 | 6922
SPRYD3 | SID255361583 | -0.54 | 6402
TM7SF2 | SID255352900 | 0.9 | 5854
NCEH1 | SID255359463 | -0.93 | 6460
TEX12 | SID255359038 | 0.94 | 6570
SLC16A2 | SID255352493 | -0.08 | 5560
NFKBIA | SID255351227 | -0.86 | 5290
S100B | SID255352273 | 0.3 | 5795
ZNF22 | SID255353197 | 1.94 | 6507
SLC71A1 | SID255359952 | 1.5 | 6240
CHD4 | SID255348897 | -2.08 (active) | 4318
DYNC2LI1 | SID255357819 | 1.61 | 4738
FLNC | SID255349721 | 1.35 | 3644
SMARCA5 | SID255353574 | 0.68 | 4887
MTX1 | SID255351069 | 0.2 | 5252
CYP2J2 | SID255349208 | 1.06 | 5544
MTHFD2 | SID255355358 | -1.03 | 6130
PRR19 | SID255364764 | -0.06 | 5815
SHTN1 | SID255359558 | 0.57 | 4972
NCK2 | SID255353553 | -1.92 | 4002
UTRN | SID255353086 | 0.94 | 5692
DNM3 | SID255356640 | 1.64 | 4956
USP39 | SID255355296 | 0.62 | 5362
TRIM55 | SID255361459 | 0.5 | 5100
CLCN5 | SID255348953 | 0.34 | 5774
PDCD6IP | SID255354743 | -1.05 | 6480
KLF10 | SID255352865 | 0.05 | 6472
DPCD | SID255356546 | 0.41 | 5594
SOX15 | SID255352579 | -0.11 | 5104
GABRB3 | SID255349796 | 0.57 | 4394
MTERF4 | SID255362882 | -0.67 | 5158
TMEM79 | SID255361298 | -0.82 | 5620
TMEM200A | SID255362251 | 0.68 | 6103
CARD10 | SID255357169 | -2.36 (active) | 3589
DOLPP1 | SID255359317 | 0.44 | 4582
EFCAB13 | SID255362648 | -1.39 | 4224
ARPP19 | SID255355344 | 0.02 | 5472
OR4D11 | SID255364228 | -0.02 | 6399
SPDEF | SID255356472 | 0.11 | 6732
ARHGEF4 | SID255357351 | -1.89 | 4035
ZNF474 | SID255362956 | 0.06 | 5928
ZNF593 | SID255357428 | -0.18 | 5514
OGT | SID255353578 | -0.02 | 6444
OR8B8 | SID255356786 | -0.57 | 4803
ERLIN2 | SID255355642 | 0.82 | 5220
AQP10 | SID255361755 | 0.2 | 6786
CA5A | SID255348640 | -0.31 | 5014
PMPCB | SID255354333 | 1.76 | 5746
DPY19L3 | SID255363358 | 2.34 (active) | 7906
AANAT | SID255348116 | -0.86 | 5410
